# In publication PMC10724061:
# By UniProt entry, the sequences of proteins in these tests, tags left out.
# UniProt Q96524: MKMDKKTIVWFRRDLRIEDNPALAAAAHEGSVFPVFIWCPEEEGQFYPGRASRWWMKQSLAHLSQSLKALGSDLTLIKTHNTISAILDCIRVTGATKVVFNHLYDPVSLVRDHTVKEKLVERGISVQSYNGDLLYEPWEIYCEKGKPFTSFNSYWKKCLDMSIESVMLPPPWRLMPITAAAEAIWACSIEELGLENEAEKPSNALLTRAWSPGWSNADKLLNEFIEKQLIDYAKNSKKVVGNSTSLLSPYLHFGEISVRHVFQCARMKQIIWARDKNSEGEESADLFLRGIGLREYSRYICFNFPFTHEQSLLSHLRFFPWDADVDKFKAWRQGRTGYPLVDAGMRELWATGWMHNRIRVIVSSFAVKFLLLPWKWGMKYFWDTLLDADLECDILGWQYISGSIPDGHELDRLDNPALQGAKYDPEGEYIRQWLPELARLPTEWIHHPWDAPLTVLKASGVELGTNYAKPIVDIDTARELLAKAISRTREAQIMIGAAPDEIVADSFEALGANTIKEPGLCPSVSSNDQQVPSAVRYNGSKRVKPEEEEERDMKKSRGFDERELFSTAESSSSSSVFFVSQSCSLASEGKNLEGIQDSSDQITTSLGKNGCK
# UniProt O82486: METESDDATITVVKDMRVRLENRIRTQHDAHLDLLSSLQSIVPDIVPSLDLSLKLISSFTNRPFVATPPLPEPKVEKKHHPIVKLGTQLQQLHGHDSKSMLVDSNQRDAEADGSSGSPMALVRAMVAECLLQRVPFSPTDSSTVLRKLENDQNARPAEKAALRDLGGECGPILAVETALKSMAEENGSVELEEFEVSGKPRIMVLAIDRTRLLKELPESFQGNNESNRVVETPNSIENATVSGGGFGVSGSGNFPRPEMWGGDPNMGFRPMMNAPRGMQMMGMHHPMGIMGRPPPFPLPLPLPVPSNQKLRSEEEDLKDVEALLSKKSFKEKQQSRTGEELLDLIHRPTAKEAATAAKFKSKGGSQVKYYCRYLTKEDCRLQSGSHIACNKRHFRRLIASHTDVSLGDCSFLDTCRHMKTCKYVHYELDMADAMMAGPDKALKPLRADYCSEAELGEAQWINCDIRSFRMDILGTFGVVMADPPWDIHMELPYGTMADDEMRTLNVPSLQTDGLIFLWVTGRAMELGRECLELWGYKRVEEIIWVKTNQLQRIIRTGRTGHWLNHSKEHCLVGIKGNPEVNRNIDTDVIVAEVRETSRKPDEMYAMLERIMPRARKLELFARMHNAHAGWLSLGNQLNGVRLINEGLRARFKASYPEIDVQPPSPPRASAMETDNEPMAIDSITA
# Results are given in words; binding and its absence hold for the method and conditions named. Binding seen in cells or lysates may run through a third protein. Some binding calls cover weakened binding; strength is not graded here.
# Target: CRY2–nYFP (Arabidopsis) (UniProt Q96524)
# Experiment: split reporter; BiFC (nYFP/cYFP) in Arabidopsis protoplasts, blue light (2% of the 488 nm laser power) for the indicated time
substance,measurement,value
MTA–cYFP (from UniProt O82486 1-685),binding,binds
